Earlier results on one compound are cited in article PMC10778980, “Profiling Novel Quinuclidine-Based Derivatives as Potential Anticholinesterase Drugs: Enzyme Inhibition and Effects on Cell Viability” (International Journal of Molecular Sciences, 2023).

Usually IC50 stands for the concentration at which inhibition is half-maximal.

SMILES strings stand for the structures. Read-outs that look alike come from different tables or passages of the source. Some results are limits rather than exact numbers.

Series [1] relates to HepG2 cells. Particulars: controls, cited from earlier work.
The subject of series [2] is SH-SY5Y cells. Particulars: 4 h exposure; controls; read-out: IC50 ± SE SH-SY5Y 4 h; cited from earlier work.

For `CN[C@@H]1C[C@H]2O[C@@](C)([C@@H]1OC)n1c3ccccc3c3c4c(c5c6ccccc6n2c5c31)C(=O)NC4` [SS, staurosporine], the IC50 was not below 2000 nM in series [1] (1 h exposure, read-out: IC50 ± SE HepG2 1 h); not below 2000 nM in series [1] (4 h exposure, read-out: IC50 ± SE HepG2 4 h); not below 2000 nM in series [1] (24 h exposure, read-out: IC50 ± SE HepG2 24 h); 3000 ± 10 nM in series [2].
